{"source": "PubChem BioAssay AID504444", "about": "(National Center for Advancing Translational Sciences (NCATS), 2011)", "note": "The campaign covered roughly 360,000 compounds. About 7,500 (2.1%) were called active. The shares of active, inactive and inconclusive entries below differ from those in the screen. The call rests on the fitted dose curve; in most records, active means well fitted inhibition curve with a large enough effect; inconclusive means small, poorly fitted or top-dose-only effect, or effect the other way; inactive means flat fitted curve, though single readings scatter. Potencies of inconclusive entries are doubtful fits and often do not repeat. On the % scale 0 is the no-effect control and ±100 the full control effect; potency means the concentration at half of the fitted maximal effect."}
{"test": "Nrf2 qHTS screen for inhibitors; further: nearly all actives have a fitted effect of over 60% in size", "settings": "A549 ARE-Fluc reporter, luciferase luminescence, 18-24 h; activity change, negative = inhibition: at 46 µM (top of the series)", "outline": "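Concentration-response testing used A549 ARE_Fluc cells at 5000 cells/well. Following an 18-24 h compound incubation, viability was read by fluorescence (Ex 405/Em 525) and luciferase output by luminescence.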"}
{"smiles": "COCCN(C(=O)COC(=O)/C=C/c1ccc(C(F)(F)F)cc1)c1c(N)n(Cc2ccccc2)c(=O)[nH]c1=O", "Potency": "inconclusive: 29.1 µM [falling, single point]"}
{"smiles": "Cc1cc(C)nc(NS(=O)(=O)c2ccc(N3C(=O)C4CC=C(Cl)CC4C3=O)cc2)n1", "note": "(stereo unspecified)", "Potency": "inconclusive: 5.8 µM [activator, full curve, poor fit]"}
{"smiles": "CCOC(=O)C1CN(S(=O)(=O)c2ccc(OC)cc2)c2cc(S(=O)(=O)CC)ccc2O1", "note": "(stereo unspecified)", "Potency": "inconclusive: 16.4 µM [activator, partial curve, poor fit]"}
{"smiles": "CCCn1nnnc1NC(=O)c1ccc2ccccc2c1", "Potency": "inconclusive: 23.1 µM [falling, single point]"}
{"smiles": "O=C(NCCCc1ccccc1)c1ccc2c(c1)sc1nc(-c3ccc(F)cc3)cn12", "Potency": "inactive"}
{"smiles": "Cc1cccc(C)c1OCC(=O)NNC(=S)NC(=O)C1CC1", "Potency": "inconclusive: 23.1 µM [falling, single point]"}
{"smiles": "CCCCC(=O)Nc1nnc(-c2ccc(OC)cc2)s1", "Potency": "inconclusive: 10.3 µM [activator, partial curve, poor fit]"}
{"smiles": "OC(COc1ccc(F)cc1Cl)CN1CCC(Cc2ccccc2)CC1", "note": "(stereo unspecified)", "Potency": "inactive"}
{"smiles": "COc1ccc(-n2c(-c3ccc(Br)cc3)c[n+]3c2CCCCC3)cc1", "Potency": "inconclusive: 16.4 µM [falling, single point]"}
{"smiles": "Cc1ccc(Sc2c(C)nn(-c3ccccc3)c2OC(=O)CC(C)C)cc1", "activity change, negative = inhibition": "inactive: -2.23% [at 9.27 µM]"}
{"smiles": "CS(=O)(=O)c1cccc(-c2nnc(NC(=O)c3ccc4ncsc4c3)o2)c1", "Potency": "inconclusive: 29.1 µM [falling, single point]"}
{"smiles": "COc1cccc(NC(=O)COC(=O)c2ccc(C)c(S(=O)(=O)N3CCCCC3)c2)c1", "Potency": "inconclusive: 18.4 µM [falling, single point]"}
{"smiles": "CC1(C)CC(=O)C2=C(C1)Nc1ccccc1NC2c1cccnc1", "note": "(stereo unspecified)", "Potency": "inactive"}
{"smiles": "O=C(COc1ccc(/C=N/NS(=O)(=O)c2ccccc2)cc1)Nc1cccc(Cl)c1", "Potency": "inconclusive: 20.6 µM [falling, single point]"}
{"smiles": "Cc1ccc(NC(=O)NCc2c(-n3cccc3)sc3c2CCCC3)c(Cl)c1", "Potency": "inactive"}
{"smiles": "CCC(=O)N1CCc2cc(S(=O)(=O)NC(CC(C)C)C(=O)NCc3cccc(OC)c3)ccc21", "note": "(stereo unspecified)", "Potency": "inconclusive: 0.259 µM [falling, full curve, poor fit]"}
{"smiles": "Cc1csc(N/N=C/c2c(F)cccc2Cl)n1", "Potency": "inconclusive: 20.6 µM [activator, partial curve, poor fit]"}
{"smiles": "O=C(c1ccc(Br)s1)N1CCN(Cc2ccc3c(c2)OCO3)CC1", "Potency": "inconclusive: 32.6 µM [falling, single point]"}
{"smiles": "COc1ccc(CCn2cnc3c([nH]c4ccccc43)c2=O)cc1", "Potency": "inactive"}
{"smiles": "CC(NC(=O)CSc1nc2c(cc1C#N)CN(C)CC2)c1ccccc1", "note": "(stereo unspecified)", "Potency": "inconclusive: 18.4 µM [falling, partial curve, poor fit]"}
{"smiles": "Cc1ccc(C(=O)N/C(=C\\c2ccco2)C(=O)NCCc2c[nH]c3ccccc23)cc1", "Potency": "inconclusive: 20.6 µM [activator, single point]"}
{"smiles": "COc1cc(CC(=O)Nc2nc(-c3ccccc3)c(C(C)=O)s2)cc(OC)c1OC", "Potency": "active: 20.6 µM"}
{"smiles": "COc1ccc(-c2cc(C(F)(F)F)nc(N)n2)cc1", "Potency": "inconclusive: 13 µM [activator, single point]"}
{"smiles": "COc1ccc(OC)c(CNc2ncc(-c3ccc(Cl)cc3)n2C)c1", "Potency": "inactive"}
{"smiles": "Cc1ccc2cc(C#N)c(SCC(=O)NNC(=O)Cc3ccccc3)nc2c1", "Potency": "inactive"}
{"smiles": "CCCCC(=O)Nc1ccc2c(c1)nc1n2CCOC1", "Potency": "inconclusive: 14.6 µM [activator, partial curve, poor fit]"}
{"smiles": "COC(=O)c1[nH]c2cccc(OC)c2c1NC(=O)CN1CCN(c2cccc(OC)c2)C(C)C1", "note": "(stereo unspecified)", "Potency": "inactive"}
{"smiles": "COC(=O)c1ccc(C)c(NC(=O)c2ccc(CN3CCc4ccccc4C3)cc2)c1", "Potency": "inconclusive: 25.9 µM [falling, single point]"}
{"smiles": "COc1ccc(S(=O)(=O)N2CCOC2CNC(=O)C(=O)NCCc2ccc(OC)c(OC)c2)cc1", "note": "(stereo unspecified)", "Potency": "inconclusive: 18.4 µM [falling, partial curve]"}
{"smiles": "Cc1cc(=O)[nH]c(=O)n1Cc1ccccc1", "Potency": "inconclusive: 0.651 µM [falling, partial curve, poor fit]"}
{"smiles": "Cc1nn(Cc2ccc(Br)cc2)c(C)c1NC(=O)c1nn(C)cc1Cl", "Potency": "inconclusive: 8.2 µM [falling, partial curve, poor fit]"}
{"smiles": "CC(C)NC(=S)N(CCc1ccncc1)C(C)C", "Potency": "inconclusive: 0.731 µM [activator, full curve, poor fit]"}
{"smiles": "CCOC(=O)COc1ccccc1/C=N\\NC(=O)c1cc2c(ccc3ccccc32)o1", "Potency": "inactive"}
{"smiles": "Oc1c(C(Nc2ccccn2)c2ccccn2)ccc2cccnc12", "note": "(stereo unspecified)", "Potency": "inconclusive: 18.4 µM [falling, single point]"}
{"smiles": "Cc1cc(C)nc(NC(=O)CSc2nnnn2-c2ccccc2)n1", "Potency": "inactive"}
{"smiles": "COc1ccc(CC2(CO)CCN(Cc3ccc(OC(F)(F)F)cc3)CC2)cc1", "Potency": "inconclusive: 23.1 µM [falling, partial curve, poor fit]"}
{"smiles": "CCOCC(=O)Nc1cccc(Br)c1", "Potency": "inconclusive: 1.84 µM [activator, partial curve, poor fit]"}
{"smiles": "N#C/C(=N\\Nc1ccccc1F)C(=N)N1CCCCC1", "Potency": "inconclusive: 5.17 µM [activator, partial curve]"}
{"smiles": "CC(Oc1ccccc1F)C(=O)N1CCC(c2nc3ccccc3o2)CC1", "note": "(stereo unspecified)", "Potency": "inactive"}
{"smiles": "CCN(c1ccccc1)S(=O)(=O)c1ccc(Cl)c(NC(=O)CN2CCCCCC2)c1", "Potency": "inconclusive: 23.1 µM [falling, single point]"}
{"smiles": "CCc1cc2c(-c3ccccc3)cc(=O)oc2c2c1OCN(Cc1ccc(C)cc1)C2", "Potency": "inactive"}
{"smiles": "N#Cc1ccccc1S(=O)(=O)N1CCN(C(=O)CN2CCCSc3ccccc32)CC1", "Potency": "inactive"}
{"smiles": "O=C1N/C(=N\\N=C\\c2ccccn2)SC1Cc1cccc(SC(F)F)c1", "note": "(stereo unspecified)", "Potency": "active: 16.4 µM"}
{"smiles": "COc1ccc(CCNC(=O)C(=O)NCCC2CCCCN2S(=O)(=O)c2ccccc2)cc1", "note": "(stereo unspecified)", "Potency": "inconclusive: 29.1 µM [falling, single point]"}
{"smiles": "CCCNC(=S)N(Cc1ccccc1)Cc1nc2ccccc2c(=O)[nH]1", "Potency": "inconclusive: 8.2 µM [falling, partial curve, poor fit]"}
{"smiles": "Cc1cc(C)c2cc(C#N)c(NCCOC(=O)c3ccccc3C)nc2c1", "Potency": "inconclusive: 14.6 µM [falling, partial curve, poor fit]"}
{"smiles": "Cc1ccc(NC(=O)C2CCN(S(=O)(=O)c3ccc4c(c3)OCCO4)CC2)nc1", "Potency": "inconclusive: 29.1 µM [falling, single point]"}
{"smiles": "CN(CCOc1ccccc1)S(=O)(=O)c1ccc2oc3ccccc3c2c1", "Potency": "inconclusive: 16.4 µM [falling, single point]"}
{"smiles": "CC1(c2cc([N+](=O)[O-])cc([N+](=O)[O-])c2)CC(C)(C)N(C(=O)c2ccccc2)c2ccccc21", "note": "(stereo unspecified)", "Potency": "inconclusive: 29.1 µM [falling, single point]"}
{"smiles": "Cc1ccc(NC(=O)CN2C(=O)c3ccccc3Sc3ncccc32)c(C)c1", "Potency": "inconclusive: 25.9 µM [falling, partial curve, poor fit]"}
{"smiles": "CC(C)c1ccc(OCC(=O)N2CCCCCC2)c(Br)c1", "Potency": "inconclusive: 8.2 µM [activator, partial curve]"}
{"smiles": "COc1ccccc1N=Nc1[nH]c2ccc(C)cc2c1O", "Potency": "inconclusive: 20.6 µM [activator, single point]"}
{"smiles": "Cc1sc2ncnc(N3CCC(C)CC3)c2c1C", "Potency": "inconclusive: 32.6 µM [falling, single point]"}
{"smiles": "O=C(Nc1ccc2cn[nH]c2c1)c1c(Cl)cccc1Cl", "Potency": "inactive"}
{"smiles": "COc1ccc(-c2csc(Nc3ccccc3)n2)cc1", "Potency": "inconclusive: 1.46 µM [activator, full curve]"}
{"smiles": "COc1ccc(N(CC(=O)Nc2ccc(OC)c(Cl)c2)S(=O)(=O)c2c(C)noc2C)cc1", "Potency": "inconclusive: 25.9 µM [falling, single point]"}
{"smiles": "CC(C)CC(=O)NC(=S)Nc1ccc(F)cc1F", "Potency": "inconclusive: 29.1 µM [activator, single point]"}
{"smiles": "CC(=O)c1ccc(NC(=O)c2nn(C)c3c2COc2ccccc2-3)cc1", "Potency": "inconclusive: 8.2 µM [activator, single point]"}
{"smiles": "CCOc1ccc(C(=O)Nc2cc(-c3nc4ccccc4[nH]3)ccc2Cl)cc1[N+](=O)[O-]", "Potency": "inconclusive: 29.1 µM [activator, single point]"}
{"smiles": "O=C(Nc1nnc(-c2ccc(F)cc2)o1)c1ccc(S(=O)(=O)N2CCOCC2)cc1", "Potency": "active: 9.2 µM"}
{"smiles": "Cc1sc2ncnc(N3CCC(C(=O)Nc4nc5ccc(Cl)cc5s4)CC3)c2c1C", "Potency": "inconclusive: 23.1 µM [activator, partial curve]"}
{"smiles": "O=C(c1ccco1)N1CCN(C(=S)Nc2cccc([N+](=O)[O-])c2)CC1", "Potency": "inconclusive: 23.1 µM [falling, single point]"}
{"smiles": "O=[S+]([O-])(c1ccc2c(c1)OCCO2)N1CCN([S+](=O)([O-])c2c(F)cc(Br)cc2F)CC1", "Potency": "inactive"}
{"smiles": "COc1cccc(N=Nc2c(N)[nH]n3c(=O)c4c(nc23)CCCC4)c1", "Potency": "inconclusive: 8.2 µM [falling, partial curve]"}
{"smiles": "C(=N\\Nc1nccc(-c2cccnc2)n1)/c1ccccc1", "Potency": "inconclusive: 1.46 µM [activator, full curve]"}
{"smiles": "Cn1cc(C(=O)N2CCN(c3ccccc3)CC2)c(=O)c2cc(S(=O)(=O)N3CCCC3)ccc21", "Potency": "inconclusive: 29.1 µM [falling, single point]"}
